Measured values taken from PubChem BioAssay AID192 (DTP/NCI, 2004).
The list is a part of this screen's results and no random one: it gathers tests that were run many times, whatever their T/C, doses with no T/C, and many T/C values between a quarter and a half above the control. Other doses and runs of a compound stand elsewhere. T/C: endpoint of the treated group in % of that of the vehicle group. Some entries give survivors of the animals treated and no T/C: the source files T/C as zero there, which appears to mark a toxic dose or a test without result, not a measured value. Some doses without a T/C left all or most animals alive at the check, yet need not have been tolerated: the source hardly ever lists a survival T/C far under the control, and the zero likely stands for such cases as well. Survivors were counted at the toxicity check, usually on the fifth day, unless a day is given; later deaths do not show. Schedules are NCI's codes, taken here to give the interval after Q, in days (D) or hours (H), and the number of doses after X. Signs of the kind (2×) count equal records among those shown. Some doses were run more than once; their values stand side by side, smallest first. Where survival is the endpoint, this PubChem deposit counts one and a half times the control or more as active, and values a quarter to a half above the control carry no call in these data; other NCI protocols may use other cut-offs. Some T/C values carry the count of animals alive at the toxicity check (mostly the fifth day); without a count, all were alive then.

Test system: BDF1 mice, B16 melanoma ip, median survival T/C
Test: NCI In Vivo Anticancer Drug Screen. Data for tumor model B16 Melanoma (intraperitoneal) in B6D2F1 (BDF1) mice
Details: T/C endpoint: median survival time, higher T/C = longer survival
In short: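 Tumor-bearing mice received test compound or vehicle. Survival or tumor size was then measured in both groups. The treated-group figure was divided by the control-group figure.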

[1] = dose: 80.0 mg/kg/injection, schedule: Q01DX009 (ip), vehicle: saline with Tween-80
[2] = dose: 50.0 mg/kg/injection, schedule: Q01DX009 (ip), vehicle: saline
[3] = dose: 400.0 mg/kg/injection, schedule: Q01DX009 (ip), vehicle: Klucel (hydroxypropylcellulose) (HPC)
[4] = dose: 200.0 mg/kg/injection, schedule: Q01DX009 (ip), vehicle: saline with Tween-80
[5] = dose: 12.5 mg/kg/injection, schedule: Q01DX009 (ip), vehicle: Klucel (hydroxypropylcellulose) (HPC)
[6] = dose: 25.0 mg/kg/injection, schedule: Q01DX009 (ip), vehicle: Klucel (hydroxypropylcellulose) (HPC)
[7] = dose: 50.0 mg/kg/injection, schedule: Q01DX009 (ip), vehicle: Klucel (hydroxypropylcellulose) (HPC)
[8] = dose: 100.0 mg/kg/injection, schedule: Q01DX009 (ip), vehicle: Klucel (hydroxypropylcellulose) (HPC)
[9] = dose: 200.0 mg/kg/injection, schedule: Q01DX009 (ip), vehicle: Klucel (hydroxypropylcellulose) (HPC)
[10] = dose: 100.0 mg/kg/injection, schedule: Q01DX009 (ip), vehicle: saline with Tween-80
[11] = dose: 400.0 mg/kg/injection, schedule: Q04DX003 (ip), vehicle: saline with Tween-80

For Clc1nc(SC2=NCCN2)c2[nH]cnc2n1, the survivor count (dose: 20.0 mg/kg/injection, schedule: Q01DX009 (ip), vehicle: saline with Tween-80) was 10 of 10, the survivor count (dose: 40.0 mg/kg/injection, schedule: Q01DX009 (ip), vehicle: saline with Tween-80) was 10 of 10 and the survivor count [1] was 2 of 10.
With CN(C)CCC=C1c2ccccc2CCc2ccccc21 the survivor count [2] was 6 of 10.
ClCCN(CCCl)CCCN1c2ccccc2Sc2ccc(Cl)cc21 was tested, and the T/C (dose: 6.25 mg/kg/injection, schedule: Q01DX009 (ip), vehicle: saline with Tween-80) was 138 % of control, the survivor count (dose: 35.0 mg/kg/injection, schedule: Q01DX009 (ip), vehicle: saline with Tween-80) was 2 of 10 and the survivor count (dose: 55.0 mg/kg/injection, schedule: Q01DX009 (ip), vehicle: saline with Tween-80) was 0 of 10. The survivor count [1] was 1 of 10.
CNC(=O)Nc1c(C)cccc1C was tested, and the survivor count [3] was 9 of 10.
For CCCC(NC(=O)C(C)Br)C(=O)O (configuration not stated), the survivor count [4] was 10 of 10.
With CCCCCCC(=O)NC1=C(N2CC2)C(=O)C(NC(=O)CCCCCC)=C(N2CC2)C1=O the T/C (dose: 6.25 mg/kg/injection, schedule: Q01DX009 (ip), vehicle: Klucel (hydroxypropylcellulose) (HPC)) was 128 % of control [9 of 10 alive], the T/C [5] was 149 % of control [9 of 10 alive] and the T/C [6] was 127 % of control. For the same molecule, the survivor count [6] was 4 of 10, the T/C [7] was 135 and 136 % of control [7 of 10 alive] and the survivor count [7] was 10 of 10. For the same molecule, the survivor count [8] was 10 of 10 and the survivor count [9] was 3 of 10.
In the case of CCC(=O)NC1=C(N2CC2C)C(=O)C(NC(=O)CC)=C(N2CC2C)C1=O (configuration not stated), the survivor count (dose: 0.19 mg/kg/injection, schedule: Q01DX009 (ip), vehicle: Klucel (hydroxypropylcellulose) (HPC)) is reported as 10 of 10, the survivor count [5] is reported as 9 of 10 and the survivor count [6] is reported as 3 of 10. The survivor count [7] was 10 of 10.
For COC(=O)C[C@](O)(CCCC(C)(C)O)C(=O)O[C@@H]1C(OC)=C[C@]23CCCN2CCc2cc4c(cc2[C@H]13)OCO4, the T/C (dose: 0.06 mg/kg/injection, schedule: Q01DX009 (ip), vehicle: saline sonified) was 125 % of control, the T/C (dose: 0.5 mg/kg/injection, schedule: Q01DX009 (ip), vehicle: saline sonified) was 125 % of control and the T/C (dose: 0.5 mg/kg/injection, schedule: Q01DX009 (ip), vehicle: saline with Tween-80) was 126 % of control. For the same molecule, the survivor count (dose: 2.0 mg/kg/injection, schedule: Q01DX009 (ip), vehicle: saline with Tween-80) was 6 of 6, the survivor count (dose: 4.0 mg/kg/injection, schedule: Q01DX009 (ip), vehicle: saline with Tween-80) was 2 of 6 and the survivor count (dose: 4.08 mg/kg/injection, schedule: Q04DX003 (ip), vehicle: saline) was 5 of 8.
For CCCCCCCCCCCC(=O)CC, the survivor count (dose: 400.0 mg/kg/injection, schedule: Q01DX009 (ip), vehicle: other) was 6 of 10.
In the case of COc1ccc(OC)c(NC=O)c1, the survivor count (dose: 50.0 mg/kg/injection, schedule: Q01DX009 (ip), vehicle: saline with Tween-80) is reported as 10 of 10 and the survivor count [10] is reported as 10 of 10.
For Cc1cc(=NO)cc(C)n1O, the survivor count (dose: 100.0 mg/kg/injection, schedule: Q01DX009 (ip), vehicle: distilled water + alcohol) was 10 of 10 and the survivor count (dose: 400.0 mg/kg/injection, schedule: Q01DX009 (ip), vehicle: distilled water + alcohol) was 9 of 10.
In the case of COc1ccc(CCN2C(=O)CSC2=S)cc1OC, the survivor count [10] is reported as 6 of 6, the survivor count [9] is reported as 9 of 10 and the survivor count [3] is reported as 5 of 10. For the same molecule, the survivor count (dose: 400.0 mg/kg/injection, schedule: Q01DX009 (ip), vehicle: saline with Tween-80) was 10 of 10 and the survivor count [11] was 10 of 10.
With Cc1ccn(C(N)=O)n1 the survivor count [3] was 8 of 10.
CCCCCC(CN(C)C)C(=O)/C=C\c1ccc(Cl)cc1Cl (configuration not stated) was tested, and the survivor count (dose: 25.0 mg/kg/injection, schedule: Q01DX009 (ip), vehicle: saline) was 10 of 10 and the survivor count [2] was 10 of 10.
CN(C)N=Nc1c(Cl)cccc1Cl was tested, and the survivor count (dose: 75.0 mg/kg/injection, schedule: Q01DX009 (ip), vehicle: Klucel (hydroxypropylcellulose) (HPC)) was 10 of 10, the survivor count (dose: 150.0 mg/kg/injection, schedule: Q01DX009 (ip), vehicle: Klucel (hydroxypropylcellulose) (HPC)) was 9 of 10 and the survivor count (dose: 300.0 mg/kg/injection, schedule: Q01DX009 (ip), vehicle: Klucel (hydroxypropylcellulose) (HPC)) was 8 of 10.
CCC(C)C(CC(=O)O)C(=O)O (configuration not stated) was tested, and the survivor count (dose: 100.0 mg/kg/injection, schedule: Q04DX003 (ip), vehicle: saline with Tween-80) was 10 of 10, the survivor count (dose: 200.0 mg/kg/injection, schedule: Q04DX003 (ip), vehicle: saline with Tween-80) was 10 of 10 and the survivor count [11] was 10 of 10.
In the case of c1ccc(CC2NCCc3c2[nH]c2ccccc32)cc1 (configuration not stated), the survivor count [5] is reported as 7 of 10, the survivor count [8] is reported as 10 of 10 and the survivor count [9] is reported as 5 of 10.
For COCC12CCC(OC)C34C5CC6(O)C(OC)CC(OC(C)=O)(C5C6OC(=O)c5ccccc5)C(C(OC)C13)C4N(C)C2 (configuration not stated), the survivor count (dose: 0.13 mg/kg/injection, schedule: Q01DX009 (ip), vehicle: Klucel (hydroxypropylcellulose) (HPC)) was 10 of 10, the survivor count (dose: 0.25 mg/kg/injection, schedule: Q01DX009 (ip), vehicle: Klucel (hydroxypropylcellulose) (HPC)) was 9 of 10 and the survivor count (dose: 0.5 mg/kg/injection, schedule: Q01DX009 (ip), vehicle: Klucel (hydroxypropylcellulose) (HPC)) was 10 of 10. The survivor count (dose: 1.0 mg/kg/injection, schedule: Q01DX009 (ip), vehicle: Klucel (hydroxypropylcellulose) (HPC)) was 10 of 10.
CCOc1ccc([NH-])c([NH-])c1.[Cl][Pt+2][Cl] was tested, and the survivor count (dose: 40.0 mg/kg/injection, schedule: Q01DX009 (ip), vehicle: distilled water + Tween-80) was 10 of 10.
With c1ccc(N/N=C2/c3ccccc3CC23OC3c2ccccc2)cc1 (configuration not stated) the survivor count [9] was 8 of 8.
In the case of Oc1ccccc1/C=N/NC(=S)NC1CC2C=CC1C2 (configuration not stated), the survivor count (dose: 12.5 mg/kg/injection, schedule: Q01DX009 (ip), vehicle: olive oil, sesame oil, peanut oil) is reported as 9 of 10 and 10 of 10, the survivor count (dose: 25.0 mg/kg/injection, schedule: Q01DX009 (ip), vehicle: olive oil, sesame oil, peanut oil) is reported as 10 of 10 (2×) and the survivor count (dose: 50.0 mg/kg/injection, schedule: Q01DX009 (ip), vehicle: olive oil, sesame oil, peanut oil) is reported as 9 of 10. The survivor count (dose: 100.0 mg/kg/injection, schedule: Q01DX009 (ip), vehicle: olive oil, sesame oil, peanut oil) was 9 of 10 and 10 of 10, the survivor count (dose: 200.0 mg/kg/injection, schedule: Q01DX009 (ip), vehicle: olive oil, sesame oil, peanut oil) was 9 of 10 and 10 of 10 and the survivor count (dose: 400.0 mg/kg/injection, schedule: Q01DX009 (ip), vehicle: olive oil, sesame oil, peanut oil) was 8 of 10 and 10 of 10.
For O=C(Oc1ccc(Cl)cc1)c1ccc(Cl)cc1, the survivor count [8] was 10 of 10, the survivor count (dose: 150.0 mg/kg/injection, schedule: Q04DX003 (ip), vehicle: Klucel (hydroxypropylcellulose) (HPC)) was 10 of 10 and the survivor count [9] was 10 of 10. The survivor count (dose: 300.0 mg/kg/injection, schedule: Q04DX003 (ip), vehicle: Klucel (hydroxypropylcellulose) (HPC)) was 10 of 10 and the survivor count [3] was 10 of 10.
With CC(C)=CC(=O)OCC[N+](C)(C)C the survivor count (dose: 75.0 mg/kg/injection, schedule: Q01DX009 (ip), vehicle: saline) was 0 of 10, the survivor count (dose: 150.0 mg/kg/injection, schedule: Q01DX009 (ip), vehicle: saline) was 0 of 10 and the survivor count (dose: 300.0 mg/kg/injection, schedule: Q01DX009 (ip), vehicle: saline) was 0 of 10.
In the case of O=C1C(=O)c2ccccc2C(O)=C1CCCc1ccc(C2CCCCCC2)cc1, the survivor count [10] is reported as 9 of 10 and the survivor count [4] is reported as 8 of 10.
